PubChem BioAssay AID1259308 | NCATS, 2017

- Screen: 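Genes whose loss raises luciferase production in HEK293 cells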 (primary screen)
- Cells: human HEK293 embryonic kidney cells stably expressing firefly luciferase (HEK-CMV-Luc2-Hygro)
- Reagents: single siRNA against human genes, 0.8 pmol siRNA per well
- Duration: 72 h
- Read-out: 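Luciferase light (ONE-Glo) measured on one replicate plate set and viability (CellTiter-Glo) on the other, scaled to a negative control siRNA, with robust z-scores and luciferase per cell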
- Scale: total luciferase, z-score and total luciferase, % of control: higher = more reporter protein produced
- Rule for the call: 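Active when the median/MAD z-score for overall luciferase is greater than 3; a gene was taken forward for validation with new siRNAs if at least two of its three siRNAs passed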
- Meaning of the calls: active = raised luciferase; inactive = no rise
This is one part, drawn at random, of about 59,000 reagents tested. In the full data, about 1,510 (2.6%) got an active call. 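Calls use total luciferase alone and ignore viability, so some active siRNAs may act by altering cell number.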 Reagents against one gene are numbered here. Not all columns of the deposit are shown.

For SNTA1 (GeneID 6640) #1, what was measured?
total luciferase, z-score: 0.197; total luciferase, % of control: 85.8; Outcome: inactive

For SNTA1 (GeneID 6640) #2, how do the results read?
total luciferase, z-score: -0.293; total luciferase, % of control: 76.1; Outcome: inactive

How did the screen score SNTA1 (GeneID 6640) #3?
total luciferase, z-score: 2.85; total luciferase, % of control: 139; Outcome: inactive

Which result is listed for GNRH1 (GeneID 2796) #1?
total luciferase, z-score: 0.437; total luciferase, % of control: 90.6; Outcome: inactive

How did the screen score GNRH1 (GeneID 2796) #2?
total luciferase, z-score: -1.24; total luciferase, % of control: 57.2; Outcome: inactive

For GNRH1 (GeneID 2796) #3, what does the deposit list?
total luciferase, z-score: 0.00613; total luciferase, % of control: 82; Outcome: inactive

With OR7C1 (GeneID 26664) #1, what does the deposit list?
total luciferase, z-score: -1.84; total luciferase, % of control: 45.2; Outcome: inactive

With OR7C1 (GeneID 26664) #2, what does the deposit list?
total luciferase, z-score: 0.512; total luciferase, % of control: 92.1; Outcome: inactive

What did the screen give for OR7C1 (GeneID 26664) #3?
total luciferase, z-score: -0.583; total luciferase, % of control: 70.3; Outcome: inactive

With DEFB1 (GeneID 1672) #1, what was measured?
total luciferase, z-score: -1.45; total luciferase, % of control: 53; Outcome: inactive

With DEFB1 (GeneID 1672) #2, how do the results read?
total luciferase, z-score: 0.705; total luciferase, % of control: 95.9; Outcome: inactive

What did the screen give for DEFB1 (GeneID 1672) #3?
total luciferase, z-score: -0.0787; total luciferase, % of control: 80.3; Outcome: inactive

For TIMMDC1 (GeneID 51300) #1, how do the results read?
total luciferase, z-score: 1.23; total luciferase, % of control: 106; Outcome: inactive

With TIMMDC1 (GeneID 51300) #2, how do the results read?
total luciferase, z-score: -0.0573; total luciferase, % of control: 80.7; Outcome: inactive

For TIMMDC1 (GeneID 51300) #3, what does the deposit list?
total luciferase, z-score: 2; total luciferase, % of control: 122; Outcome: inactive

What did the screen give for SLC38A4 (GeneID 55089) #1?
total luciferase, z-score: -1.39; total luciferase, % of control: 54.2; Outcome: inactive

With SLC38A4 (GeneID 55089) #2, how do the results read?
total luciferase, z-score: 1.66; total luciferase, % of control: 115; Outcome: inactive

What did the screen give for SLC38A4 (GeneID 55089) #3?
total luciferase, z-score: -0.329; total luciferase, % of control: 75.3; Outcome: inactive

What did the screen give for IK (GeneID 3550) #1?
total luciferase, z-score: 1.74; total luciferase, % of control: 116; Outcome: inactive

For IK (GeneID 3550) #2, what does the deposit list?
total luciferase, z-score: 0.401; total luciferase, % of control: 89.9; Outcome: inactive

With IK (GeneID 3550) #3, what does the deposit list?
total luciferase, z-score: 0.552; total luciferase, % of control: 92.9; Outcome: inactive

Targets listed so far whose target name starts with O or o (3):
OR7C1 (GeneID 26664) #1 — total luciferase, z-score = -1.84; total luciferase, % of control = 45.2; Outcome = inactive
OR7C1 (GeneID 26664) #2 — total luciferase, z-score = 0.512; total luciferase, % of control = 92.1; Outcome = inactive
OR7C1 (GeneID 26664) #3 — total luciferase, z-score = -0.583; total luciferase, % of control = 70.3; Outcome = inactive
